From patent US11524945B2, “Compounds for treating ILK-mediated diseases” (The Cleveland Clinic Foundation, priority 2018, dated 2022) come the findings set out here.

Molecules are shown by their SMILES.

In the data set the test system is Caco2 Cell Monolayer. Description: Assessment of Caco2 cell monolayer integrity. The data set is classed as in vitro ADME. To be noted: for LY LeakageA-B (%) / TEERA-B (Ω · cm^2): A-B; for LY LeakageB-A (%) / TEERB-A (Ω · cm^2): B-A.

With `C#Cc1cc(Nc2ncnc3cc(OCCOC)ccc23)cc(OCCOCC)c1` [Compound 1], the “LY LeakageA-B (%)” value was found to be 0.24%, the “TEERA-B (Ω · cm^2)” value is on record as 529 Ω · cm^2, the “LY LeakageB-A (%)” value is listed as 0.18% and the “TEERB-A (Ω · cm^2)” value was 547 Ω · cm^2.

In the case of `C[C@H]1O[C@@H](O[C@H]2[C@@H](O)C[C@H](O[C@H]3[C@@H](O)C[C@H](O[C@H]4CC[C@@]5(C)[C@H](CC[C@@H]6[C@@H]5C[C@@H](O)[C@]5(C)[C@@H](C7=CC(=O)OC7)CC[C@]65O)C4)O[C@@H]3C)O[C@@H]2C)C[C@H](O)[C@@H]1O` [Digoxin], the “LY LeakageA-B (%)” value is on record as 0.23%, the “TEERA-B (Ω · cm^2)” value is on record as 520 Ω · cm^2, the “LY LeakageB-A (%)” value was found to be 0.20% and the “TEERB-A (Ω · cm^2)” value was 484 Ω · cm^2.

As to `COc1cc2nc(N3CCN(C(=O)c4ccco4)CC3)nc(N)c2cc1OC` [Prazosin], the “LY LeakageA-B (%)” value was found to be 0.17%, the “TEERA-B (Ω · cm^2)” value was 551 Ω · cm^2, the “LY LeakageB-A (%)” value was determined as 0.26% and the “TEERB-A (Ω · cm^2)” value was 556 Ω · cm^2.

Turning to `CC(C)NCC(O)COc1cccc2ccccc12` (stereo not shown) [Propranolol], the “LY LeakageA-B (%)” value was found to be 0.32%, the “TEERA-B (Ω · cm^2)” value was 353 Ω · cm^2, the “LY LeakageB-A (%)” value worked out at 0.29% and the “TEERB-A (Ω · cm^2)” value is on record as 349 Ω · cm^2.
